Values quoted from earlier work in US20230073301A1, “TISSUE DOSING FOR INTRALUMINAL LOCAL DRUG DELIVERY” (ISOLA THERAPEUTICS, INC., priority 2020, published 2023).

Settings: cited from earlier work

Structure (SMILES): CC(=O)O[C@H]1C(=O)[C@@]2(C)[C@H]([C@H](OC(=O)c3ccccc3)[C@]3(O)C[C@H](OC(=O)[C@H](O)[C@@H](NC(=O)c4ccccc4)c4ccccc4)C(C)=C1C3(C)C)[C@]1(OC(C)=O)CO[C@@H]1C[C@@H]2O [PTX, 5β,20-Epoxy-1,2α,4,7β,10β,13α-hexahydroxytax-11-en-9-one 4,10-diacetate 2-benzoate 13-ester with (2R,3S)-N-benzoyl-3-phenylisoserine]
- solubility in water: insoluble in water
